Experimental data: patent US6491729B1

How the values were obtained:
[1] = tensile strength (load weight, displacement, stress, specific stress, strain at the maximum load point); settings: dyed fabric of nylon/polyacrylonitrile
[2] = degree of shrinkage of fabric after dry-cleaning; settings: dyed fabric of nylon

ClC(Cl)=C(Cl)Cl [perchloroethylene]
displacement ([1]; dry-cleaned five times): 57.66 mm | load weight ([1]; dry-cleaned five times): 9.67 kg | specific stress ([1]; dry-cleaned five times): 9.67 kg/L | strain ([1]; dry-cleaned five times): 38.44% | stress ([1]; dry-cleaned five times): 0.76 kg/mm^2 | displacement ([1]; dry-cleaned one time): 73 mm | load weight ([1]; dry-cleaned one time): 12.86 kg | specific stress ([1]; dry-cleaned one time): 12.86 kg/L | strain ([1]; dry-cleaned one time): 48.66% | stress ([1]; dry-cleaned one time): 1 kg/mm^2 | displacement ([1]; dry-cleaned two times): 84.76 mm | load weight ([1]; dry-cleaned two times): 14.47 kg | specific stress ([1]; dry-cleaned two times): 14.47 kg/L | strain ([1]; dry-cleaned two times): 56.5% | stress ([1]; dry-cleaned two times): 1.13 kg/mm^2 | the degree of shrinkage, warp sense ([2]; dry-cleaned five times): 0% | the degree of shrinkage, weft sense ([2]; dry-cleaned five times): 0% | the degree of shrinkage, warp sense ([2]; dry-cleaned one time): 1% | the degree of shrinkage, weft sense ([2]; dry-cleaned one time): 0% | the degree of shrinkage, warp sense ([2]; dry-cleaned two times): 1% | the degree of shrinkage, weft sense ([2]; dry-cleaned two times): 0%
